“And” between values parts separate entries of the source, which are not always exact repeats. Equal entries are not always repeated. The list shows a part of the results. Repeats are few or missing, and single values can be far off.
test system: Neuro-2a; assay: neurite formation score, plate-normalized to DMSO control mean 5.04 (score (0-8 scale)); higher = more or longer neurites; conditions: 10 µM

SMILES	neurite formation score
c1cncc(CN2CCC(n3ncc4c(N5CCOCC5)nc(-c5ccc6[nH]ccc6c5)nc43)CC2)c1	0.189
Cn1cc(-c2ccc3c(c2)CCN3C(=O)Cc2cccc(C(F)(F)F)c2)c2c(N)ncnc21	5.41
COc1cc(N2CCOCC2)ccc1Nc1ncc(F)c(Nc2ccccc2NS(C)(=O)=O)n1	5.19
C#Cc1cccc(Nc2ncnc3cc(OC)c(OCCCCCCC(=O)NO)cc23)c1	0.077
CN(C)C/C=C/C(=O)Nc1cc2c(Nc3ccc(F)c(Cl)c3)ncnc2cc1O[C@H]1CCOC1 [Afatinib (BIBW2992)]	4.52
Cc1[nH]c2ccccc2c1C1=C(NCCc2ccc(F)cc2)C(=O)N(C)C1=O	4.52
CN(c1ccccc1CNc1nc(Nc2ccc3c(c2)CC(=O)N3)ncc1C(F)(F)F)S(C)(=O)=O	1.43
CCc1cncnc1N1CCN(Cc2nc3ccc(C(F)(F)F)cc3[nH]2)CC1	3.86
Cc1cc(C)nc(NS(=O)(=O)c2ccc(NC(=S)NC(=O)COc3ccc(Br)cc3Cl)cc2)n1	3.85
CN(C)c1ccc(-c2nc3ncc(Cl)c(N4CCN(CC(=O)Nc5nccs5)CC4)c3[nH]2)cc1	4.09
CCc1cnn2c(NCc3ccc[n+]([O-])c3)cc(N3CCCC[C@H]3CCO)nc12	2.09
Cc1cc(CN2CCN(c3c(Br)cnc4nc(-c5ccc(N6CCN(C)CC6)cc5)[nH]c34)CC2)no1	4.42
COc1c(OCCCN2CCOCC2)ccc2c3n(c(=NC(=O)c4cnc(N)nc4)nc12)CCN3 [BAY 80-6946 (Copanlisib)]	4.09
C[C@@H](Oc1ccc2[nH]nc(/C=C/c3cnn(CCO)c3)c2c1)c1c(Cl)cncc1Cl	1.41
CCCCCCCCCCCCCCCCOP(=O)([O-])OCC[N+](C)(C)C [Miltefosine]	1.09
Cn1sc(=O)n(Cc2ccccc2)c1=O	4.43
C=CC(=O)Nc1cccc(Oc2nc(Nc3ccc(N4CCN(C)CC4)cc3OC)ncc2Cl)c1	-0.124
CCc1cccc(CC)c1NC(=O)N1Cc2[nH]nc(NC(=O)c3ccc(N4CCN(C)CC4)cc3)c2C1	0.0903
O=C(c1cccc(Cl)c1F)N1CCN(Cc2cccc(Nc3nccs3)n2)CC1	1.42
CN1CCC(COc2cnc(-c3cccc(Cn4nc(-c5cccc(C#N)c5)ccc4=O)c3)nc2)CC1	-0.256

SMILES	neurite formation score
COc1cc2c(c(OC)c1OC)-c1c(cc3c(c1OC)OCO3)CC(C)C(C)C2 (centres undefined) [Schizandrin B]	5.19
Cc1[nH]c(/C=C2\C(=O)Nc3ccccc32)c(C)c1CCC(=O)O [TSU-68 (SU6668,Orantinib)]	3.19
N#Cc1ccc2[nH]c(O)c(-c3ccc(CN4CCOCC4)cn3)c2c1	4.86
COc1cc2ncnc(Oc3cccc(NC(=O)Nc4cc(C(C)(C)C(F)(F)F)on4)c3)c2cc1OC	3.21
O=C(NCCCNc1nc(Nc2cccc(CN3CCOCC3)c2)ncc1C1CC1)C1CCC1	5.08
Cc1ncc(CCCN(C)C)cc1Nc1ncc2c(n1)-c1ccc(C(F)(F)F)cc1NC(=S)C2	5.43
CCCS(=O)(=O)Nc1ccc(F)c(C(=O)c2c[nH]c3ncc(-c4ccc(Cl)cc4)cc23)c1F [Vemurafenib (PLX4032, RG7204)]	4.21
CSc1cccc(Nc2ncc3cc(-c4c(Cl)cccc4Cl)c(=O)n(C)c3n2)c1	0.76
CCS(=O)(=O)N1CCN(c2ccc(Nc3ncc(C(N)=O)c(NC4CC4)n3)cc2)CC1	5.19
c1ccc2c(-c3cnn4cc(-c5ccc(N6CCNCC6)cc5)cnc34)ccnc2c1	1.76 and 3.76
COc1cc(Nc2c(C#N)cnc3cc(OCCCN4CCN(C)CC4)c(OC)cc23)c(Cl)cc1Cl [Bosutinib (SKI-606)]	2.54
Cc1nc(Nc2ncc(C(=O)Nc3c(C)cccc3Cl)s2)cc(N2CCN(CCO)CC2)n1	1.54
O=S(=O)(NCCNC/C=C/c1ccc(Br)cc1)c1cccc2cnccc12	5.52
CCN1C(=CC(C)=O)Sc2ccc(OC)cc21	4.76
Cc1cc(C(C)Nc2ccccc2)c2nc(N3CCOCC3)cc(=O)n2c1 (centres undefined)	2.09
Nc1nc(NCCNc2ncc(-n3ccnc3)c(-c3ccc(Cl)cc3Cl)n2)ccc1[N+](=O)[O-]	4.76
C[C@@H]1CCNC(=O)c2cc3ccc(C(=O)Nc4nc5ccccc5n4CCCN(C)C)cc3n21	5.09
O=C(/C=C/c1ccc2ccccc2n1)c1ccncc1	0.189
CC(C)(C)c1nc(-c2cccc(NS(=O)(=O)c3c(F)cccc3F)c2F)c(-c2ccnc(N)n2)s1	4.08 and 3.43

By substructure, the compounds so far with two or more sulfur atoms.
SMILES	neurite formation score
Cc1cc(C)nc(NS(=O)(=O)c2ccc(NC(=S)NC(=O)COc3ccc(Br)cc3Cl)cc2)n1	3.85
CC(C)(C)c1nc(-c2cccc(NS(=O)(=O)c3c(F)cccc3F)c2F)c(-c2ccnc(N)n2)s1	4.08 and 3.43
